Literature values in PMC4880976, “Pharmacologic rationale for the NK1R antagonist, aprepitant as adjunctive therapy in HIV” (Journal of Translational Medicine, 2016).

Settings: Table 1, reference not given; cited from earlier work

## CN1C(=O)CN=C(c2ccccc2)c2cc(Cl)ccc21 [Diazepam]
  Effective plasma concentrations: Effective plasma concentrations 150–400 ng/mL
